Test results: article PMC8195513

Amino acid sequences for entries named in this document (tags omitted). A change or cut given only in a name is not applied to a line headed by its entry.
UniProt Q9C6B8: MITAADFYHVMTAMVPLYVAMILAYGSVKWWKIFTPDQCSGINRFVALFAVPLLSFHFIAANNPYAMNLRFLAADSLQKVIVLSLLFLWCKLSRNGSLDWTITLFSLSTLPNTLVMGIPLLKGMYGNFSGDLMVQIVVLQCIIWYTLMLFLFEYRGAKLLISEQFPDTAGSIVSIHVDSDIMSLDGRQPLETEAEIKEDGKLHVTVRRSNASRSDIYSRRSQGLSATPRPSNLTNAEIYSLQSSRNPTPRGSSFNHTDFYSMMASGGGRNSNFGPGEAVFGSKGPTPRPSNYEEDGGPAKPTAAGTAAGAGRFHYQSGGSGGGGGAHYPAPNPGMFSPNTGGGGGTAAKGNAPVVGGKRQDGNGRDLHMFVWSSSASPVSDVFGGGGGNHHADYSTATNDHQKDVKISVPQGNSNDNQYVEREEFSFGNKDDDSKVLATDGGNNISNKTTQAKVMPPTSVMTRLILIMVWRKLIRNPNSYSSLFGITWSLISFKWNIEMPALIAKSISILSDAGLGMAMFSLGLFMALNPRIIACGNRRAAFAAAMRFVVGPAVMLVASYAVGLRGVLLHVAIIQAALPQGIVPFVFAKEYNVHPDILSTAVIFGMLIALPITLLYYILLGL
UniProt O23140: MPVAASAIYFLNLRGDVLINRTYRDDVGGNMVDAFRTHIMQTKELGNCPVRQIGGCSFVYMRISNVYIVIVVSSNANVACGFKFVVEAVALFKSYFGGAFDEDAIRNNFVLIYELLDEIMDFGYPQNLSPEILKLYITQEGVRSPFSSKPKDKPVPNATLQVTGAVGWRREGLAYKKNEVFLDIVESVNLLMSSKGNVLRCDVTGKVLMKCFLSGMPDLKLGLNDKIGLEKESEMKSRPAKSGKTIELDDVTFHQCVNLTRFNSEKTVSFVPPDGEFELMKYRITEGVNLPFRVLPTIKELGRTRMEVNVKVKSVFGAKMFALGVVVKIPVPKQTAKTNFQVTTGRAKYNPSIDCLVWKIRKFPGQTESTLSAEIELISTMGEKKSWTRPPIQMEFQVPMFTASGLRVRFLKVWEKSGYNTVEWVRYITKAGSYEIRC

Target: GST-PIN1CL (cytosolic loop of PIN1 fused to GST) (Arabidopsis thaliana) (UniProt Q9C6B8)
Assay: pull-down; GST-PIN1CL on glutathione sepharose beads; purified His6-RBD-µ2-adaptin pre-incubated 1 h at RT without or with 10 µM NAA, 2,4-D, 2-NAA or BA, then 2 h at RT with the beads; binding buffer 100 mM Tris-HCl pH 7.5, 5 mM EDTA, 0.1% Triton X-100; Western blot with a His antibody; both purified

In the case of “(His)6×-RBD-µ2-adaptin (receptor binding domain of Arabidopsis µ2-adaptin) (from UniProt O23140) (domain or fragment)”, the binding was “binds”.

Results are given in words; binding and its absence hold for the method and conditions named. Binding calls can cover weak binding; strength is not graded here.
